{"source": "paper PMC7862700", "note": "This is a selection; strong and weak results do not stand in their true shares. At the low end of the ranking, values are background and their order means little."}
{"biological_target": "T1, FEV (UniProt Q99581)", "T1 sequence": "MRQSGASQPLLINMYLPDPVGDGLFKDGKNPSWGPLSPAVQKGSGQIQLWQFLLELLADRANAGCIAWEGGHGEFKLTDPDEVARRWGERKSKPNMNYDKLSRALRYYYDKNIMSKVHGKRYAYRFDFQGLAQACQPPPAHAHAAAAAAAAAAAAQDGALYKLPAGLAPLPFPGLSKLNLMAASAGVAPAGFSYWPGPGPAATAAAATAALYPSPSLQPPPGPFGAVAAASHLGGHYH", "experiment": "DAPPL (digital affinity profiling via proximity ligation, sequencing)", "conditions": "10 mM Tris-HCl pH 7.5, 50 mM NaCl, 1 mM DTT, 4% glycerol, room temperature, 30 min; GST-TFs on glutathione beads, 16-mer random dsDNA library, 0.1% …; high values mean tight binding; double strand, one strand shown; scale: fold enrichment (6-mer frequency, TF over GST control)"}
{"sequence": "TTAGCG", "binding signal": 0.959}
{"sequence": "ACTAAG", "binding signal": 1.02}
{"sequence": "AGCCCT", "binding signal": 1.14}
{"sequence": "CAATCC", "binding signal": 1.17}
{"sequence": "TATACT", "binding signal": 1.29}
{"sequence": "TCACGA", "binding signal": 1.05}
{"sequence": "TTGTCC", "binding signal": 1.34}
{"sequence": "ATTTGA", "binding signal": 1.17}
{"sequence": "GTAAAA", "binding signal": 1.07}
{"sequence": "ATGCAA", "binding signal": 1.23}
{"sequence": "CGATCC", "binding signal": 1.2}
{"sequence": "CTATAA", "binding signal": 1.16}
{"sequence": "TAACAT", "binding signal": 1.32}
{"sequence": "TTTCCT", "binding signal": 2.34}
{"sequence": "TTACCG", "binding signal": 1.26}
{"sequence": "TCCCCT", "binding signal": 1.71}
{"sequence": "TATTTC", "binding signal": 2.32}
{"sequence": "ATCTAG", "binding signal": 1.04}
{"sequence": "CACTTC", "binding signal": 5.06}
{"sequence": "TACATT", "binding signal": 1.19}
{"sequence": "TATCTC", "binding signal": 1.27}
{"sequence": "ACCTGC", "binding signal": 1.5}
{"sequence": "CTGTAA", "binding signal": 0.996}
{"sequence": "TTCATA", "binding signal": 1.12}
{"sequence": "ATACTA", "binding signal": 1.13}
{"sequence": "CTAAAG", "binding signal": 1.29}
{"sequence": "TGCTTC", "binding signal": 2.29}
{"sequence": "AGCTAC", "binding signal": 1.23}
{"sequence": "TATGCG", "binding signal": 1.26}
{"sequence": "ATACGT", "binding signal": 1.11}
{"sequence": "AAGCAG", "binding signal": 1.09}
{"sequence": "TATTCA", "binding signal": 1.28}
{"sequence": "TAATGT", "binding signal": 0.998}
{"sequence": "TTTAAA", "binding signal": 1.25}
{"sequence": "CTTGCA", "binding signal": 1.3}
{"sequence": "TACGCT", "binding signal": 1.32}
{"sequence": "GTATAT", "binding signal": 1.06}
{"sequence": "ATAGCT", "binding signal": 1.16}
{"sequence": "ACACTT", "binding signal": 1.68}
{"sequence": "GTTTAA", "binding signal": 1.11}
